From PubChem BioAssay AID1347141 (National Center for Advancing Translational Sciences (NCATS), 2019)
Inconclusive means that the source gave no clear call. Such entries were picked first, then a sample of the others. A potency beside an inconclusive call is a rough fit, not a confirmed value. The source made the active and inactive calls. Calls follow the shape of the dose curve; as a rule, active = well fitted inhibition curve with a large enough effect; inconclusive = small, poorly fitted or top-dose-only effect; inactive = flat fitted curve, though single readings scatter.

test: qHTS of pediatric cancer cell lines to identify multiple opportunities for drug repurposing: Orthogonal 3D viability screen for RD cells; settings: RD rhabdomyosarcoma 3D spheroid viability, PI/Hoechst imaging, 72 h; series mostly up to 30.7 µM; activity change, negative = viability loss: at the top concentration
Description: Drug repurposing or repositioning has been offered as a strategy for drug development in oncology programs. This approach has special potential for childhood cancers and other rare or orphan diseases, where the expected return on new drug development has been a disincentive to pharmaceuticals. […] In this project we exploit the poly-pharmacology of drugs to discover new indications via phenotypic screening of a panel of 19 well-characterized cell lines derived from solid tumors seen in children and adolescents. The goal is to identify approved drugs with previously unrecognized anticancer properties that has the potential to reveal new mechanisms and biological processes involved in carcinogenesis or drug resistance. We employed a titration-based paradigm (quantitative high-throughput screening or qHTS), where all compounds were tested at multiple concentrations for their effect on cell viability. Concentration-response curves (CRCs) were derived directly from the primary screen, and both potency and efficacy values were used to identify compounds with robust bioactivity profiles. […] These two assays will be used to validate active compounds and assess the correlation of compound's potency in 2D vs 3D cultures on selected cell lines. Assay Submitter: Nathalia J. Martinez, National Center for Advancing Translational Sciences, National Institutes of Health, Rockville, MD, USA; email: natalia.martinez@nih.gov Shen, M et al. Quantitative high-throughput phenotypic screening of pediatric cancer cell lines identifies multiple opportunities for drug repurposing. Oncotarget 2017 Dec 19;9(4):4758-4772. PMID 29435139.
The cells were obtained from University of North Carolina (UNC), Pediatric Preclinical Testing Program (PPT), and Coriell Institute (CI). qHTS viability in 3D culture: Cells were assayed in phenol red-free growth media at a density of 1,000 cells/well, with the exception of Daoy, and SH-N-SH which were assayed at 1,500 cells/ well. Thirty muL of cells were dispensed into 384-well, ULA, round bottom plates (Corning) using a Multidrop dispenser. Plates were spun down at 1,000 rpm for 1 min and incubated at 37 degrees C, 5% CO2, under a humidified atmosphere for either 24 (Daoy) or 48 hours (all other cell lines) to allow spheroid formation. Ninety-two nanoliter of compounds and controls (neutral control DMSO or positive control bortezomib at final concentrations of 0.5 µM) were subsequently transferred via GNF Pintool. Plates were sealed using a breathable seal (Diversified Biotech, Dedham, MA) and incubated for 72 hours at 37 degrees C. Spheroid viability was first determined by high-content imaging using Hoechst 33342 and Propidium Iodide (PI, ThermoFisher Scientific), followed by addition of CellTiter-Glo 3D (Promega). Specifically, 3 µL/well of PBS containing a 1:500 dilution of both dyes was dispensed using Multidrop. Dyes were incubated for 1 hour before imaging using the Celigo Image Cytometer. Then, 20 µl of CellTiter-Glo 3D were added per well. Plates were incubated for 30 min at RT on a VWR microplate shaker (300 rpm) and analyzed for luminescence intensity using a ViewLux High-throughput CCD imager equipped with clear filters. Image analysis was done using the Celigo Tumorsphere 1+2+3 application software as previously described. Briefly, spheroids were first identified using bright-field image segmentation, and then the fluorescent intensities of PI and Hoechst 3342 were obtained using red (EX: 531/40 nm, EM: 629/53 nm) and blue (EX: 377/50 nm, EM: 470/22 nm) filters, respectively. The data were exported to Excel, and the average fluorescent intensities were used to calculate the ratio of PI over Hoechst, which was used to quantify viability. Percent activity based on neutral and positive control bortezomib was derived.

SMILES | activity change, negative = viability loss | Potency
C=C1C(=CC=C2CCC[C@]3(C)[C@@H]([C@H](C)C=C[C@H](C)C(C)C)CC[C@@H]23)C[C@@H](O)C[C@@H]1O | inactive: -5.06% | –
COC(=O)Nc1nc2ccc(C(=O)c3ccc(F)cc3)cc2[nH]1 | – | inconclusive: 1280 nM [inhibitor, full curve]
Cc1ccc(-c2ncn(-c3ccc(Nc4nccc(-c5cccc(N6CCOCC6)c5)n4)cc3)n2)cn1 | – | inconclusive: 9090 nM [inhibitor, partial curve, poor fit]
COc1cc([C@@H]2c3cc4c(cc3C(O[C@@H]3O[C@@H]5CO[C@@H](c6cccs6)OC5[C@H](O)[C@H]3O)C3COC(=O)[C@@H]32)OCO4)cc(OC)c1O (some centres not stated) | – | active: 5740 nM
C[C@@H]1C[C@H]2[C@@H]3CCC4=CC(=O)C=C[C@]4(C)[C@@]3(Cl)[C@@H](O)C[C@]2(C)[C@@]1(OC(=O)c1ccco1)C(=O)CCl | inactive: 14.7% | –
COc1cccc2c1C(=O)c1c(O)c3c(c(O)c1C2=O)C[C@@](O)(C(=O)CO)C[C@@H]3O[C@H]1C[C@H](N)[C@H](OC2CCCCO2)[C@H](C)O1 (some centres not stated) | – | inconclusive: 10200 nM [inhibitor, partial curve]
CCCCc1nc2cc(C=CC(=O)NO)ccc2n1CCN(CC)CC | – | active: 1620 nM
CC[C@@H]1C=C(C)C[C@H](C)C[C@H](OC)[C@H]2O[C@@](O)(C(=O)C(=O)N3CCCC[C@@H]3C(=O)O[C@H](C(C)=C[C@@H]3CC[C@H](Cl)[C@H](OC)C3)[C@H](C)[C@@H](O)CC1=O)[C@H](C)C[C@H]2OC | – | inconclusive: 7220 nM [inhibitor, full curve]
COc1ccc(-c2ccc3ncc4c(c3c2)n(-c2ccc(N3CCNCC3)c(C(F)(F)F)c2)c(=O)n4C)cn1 | – | active: 158 nM
COc1cc([C@@H]2c3cc4c(cc3[C@@H](O[C@@H]3O[C@@H]5CO[C@@H](C)O[C@@H]5[C@H](O)[C@@H]3O)[C@H]3COC(=O)[C@H]23)OCO4)cc(OC)c1O | – | inconclusive: 1620 nM [inhibitor, partial curve]
Nc1ccn([C@@H]2O[C@H](CO)[C@H](O)C2(F)F)c(=O)n1 | – | inconclusive: 288 nM [inhibitor, full curve, poor fit]
CCc1nc(N)nc(N)c1-c1ccc(Cl)cc1 | – | inconclusive: 6440 nM [inhibitor, full curve]
CCOc1cc(N2CCC(O)CC2)ccc1Nc1ncc2c(n1)N(C)c1ccccc1C(=O)N2C | – | inconclusive: 8100 nM [inhibitor, partial curve]
CC(C)(C)NC(=O)[C@H]1CN(Cc2cccnc2)CCN1C[C@@H](O)C[C@@H](Cc1ccccc1)C(=O)N[C@H]1c2ccccc2C[C@H]1O | inactive: -12.6% | –
CC(=O)OCC(=O)[C@@]12N=C(C)O[C@@H]1C[C@H]1[C@@H]3CCC4=CC(=O)C=C[C@]4(C)[C@H]3[C@@H](O)C[C@@]12C | inactive: 20.7% | –
CC(=O)O[C@@]12CO[C@H]1C[C@H](O)[C@@]1(C)C(=O)[C@H](O)C3=C(C)[C@@H](OC(=O)C(O)[C@@H](NC(=O)OC(C)(C)C)c4ccccc4)C[C@@](O)([C@@H](OC(=O)c4ccccc4)[C@@H]21)C3(C)C (some centres not stated) | – | inconclusive: 22.8 nM [inhibitor, full curve, poor fit]
Nc1nc2c(ncn2COCCO)c(=O)[nH]1 | inactive: -8.04% | –
CC(C)C[C@H](NC(=O)[C@H](Cc1ccccc1)NC(=O)c1cnccn1)B(O)O | – | active: 11.4 nM
COc1ccc(-c2nc(N3CCOCC3)c3sc(CN(C)c4ncc(C(=O)NO)cn4)cc3n2)cn1 | inactive: -9.52% | –
COc1cccc2c1C(=O)c1c(O)c3c(c(O)c1C2=O)C[C@@](O)(C(=O)CO)C[C@@H]3O[C@H]1C[C@H](N)[C@@H](O)[C@H](C)O1 | – | active: 9090 nM
CC(C)Cc1ccc(C(C)C(=O)O)cc1 (configuration not stated) | inactive: -25.6% | –
Nc1nc(Cl)nc2c1ncn2[C@@H]1O[C@H](CO)[C@@H](O)[C@@H]1F | – | inconclusive: 228 nM [inhibitor, full curve]
COC(=O)Nc1nc2ccc(S(=O)c3ccccc3)cc2[nH]1 (configuration not stated) | – | inconclusive: 1810 nM [inhibitor, full curve]
C[C@]12C=CC(=O)C=C1CC[C@H]1[C@@H]3C[C@@H](O)[C@](O)(C(=O)CO)[C@@]3(C)C[C@H](O)[C@@]12F | inactive: 0% | –
COc1c(C)c2c(c(O)c1C/C=C(\C)CCC(=O)OCCN1CCOCC1)C(=O)OC2 | – | inconclusive: 2040 nM [inhibitor, full curve]
CC(C)(C)C(=O)OCOP(=O)(COCCn1cnc2c(N)ncnc21)OCOC(=O)C(C)(C)C | – | inconclusive: 11400 nM [inhibitor, partial curve]
CC(NCc1ccc2c(c1)nc(NC(=O)c1ccc(-c3cn[nH]c3)s1)n2CC(C)(C)O)C(C)(C)C (configuration not stated) | – | active: 810 nM

Part of the list above, comma-delimited.
SMILES,"activity change, negative = viability loss",Potency
CCCCc1nc2cc(C=CC(=O)NO)ccc2n1CCN(CC)CC,–,active: 1620 nM
CC(=O)O[C@@]12CO[C@H]1C[C@H](O)[C@@]1(C)C(=O)[C@H](O)C3=C(C)[C@@H](OC(=O)C(O)[C@@H](NC(=O)OC(C)(C)C)c4ccccc4)C[C@@](O)([C@@H](OC(=O)c4ccccc4)[C@@H]21)C3(C)C (some centres not stated),–,"inconclusive: 22.8 nM [inhibitor, full curve, poor fit]"
Nc1nc2c(ncn2COCCO)c(=O)[nH]1,inactive: -8.04%,–
COc1ccc(-c2nc(N3CCOCC3)c3sc(CN(C)c4ncc(C(=O)NO)cn4)cc3n2)cn1,inactive: -9.52%,–
Nc1nc(Cl)nc2c1ncn2[C@@H]1O[C@H](CO)[C@@H](O)[C@@H]1F,–,"inconclusive: 228 nM [inhibitor, full curve]"
COC(=O)Nc1nc2ccc(S(=O)c3ccccc3)cc2[nH]1 (configuration not stated),–,"inconclusive: 1810 nM [inhibitor, full curve]"
